Assays:
[1] = Release of IgG from 10% PEG 3400 DA gels copolymerized with MAH ligand; type: physicochemical; details: gel containing no ligand, 5 wt % drug loading
[2] = Release of BSA and IgG from 10 wt % PEG 3400 DA gels without ligand; type: physicochemical; details: 10 wt % PEG 3400 DA gel, 5% drug loading, no ligand

With immunoglobulin G [IgG] as the substance, how does the “cumulative (fractional) release by the end of the first 6 hours” value [1] read?
The value was ~28%.

What about the “initial burst (cumulative percentage release)” value [2] of the same substance?
Its value is ~12%.

Reference: US8128952B2, “Ligand-mediated controlled drug delivery” (Clemson University Research Foundation, priority 2005, dated 2012)
